This is an account of results in article PMC5147768.

Data set [1] has as its target T1, MBP-HYL1-D1D2 (Arabidopsis thaliana) (UniProt O04492).
T1 sequence (looked up, limits assumed): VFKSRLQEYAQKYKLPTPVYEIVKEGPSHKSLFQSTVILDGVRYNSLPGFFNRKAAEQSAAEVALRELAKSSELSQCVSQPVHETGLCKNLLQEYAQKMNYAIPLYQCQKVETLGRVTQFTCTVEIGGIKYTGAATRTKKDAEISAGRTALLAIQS
In words: competition with a labelled probe. Conditions: R-EMSA: 20 ul, binding buffer of RNA EMSA kit (Thermo), 5% glycerol, 2 ug tRNA, 2 nM biotin-RNA, 30 min, 6.5% native PAGE, pH and temperature not stated, recombinant protein, protein details: MBP, probe letters rebuilt from the primers and the genome.

The target of data set [2] is T1, MBP-HYL1-D1D2 (Arabidopsis thaliana). In words: EMSA. Particulars: 2 ug tRNA, R-EMSA: 20 ul, binding buffer of RNA EMSA kit (Thermo), 5% glycerol, 2 nM biotin-RNA, 30 min, 6.5% native PAGE, pH and temperature not stated, recombinant protein, protein details: MBP, label: 5' biotin (probe), unlabeled as cold competitor, probe letters rebuilt from the primers and the genome.

For data set [3], the target named is T2, GST-DBR1 (Arabidopsis thaliana (Col-0)) (UniProt Q94K01).
T2 sequence (looked up, limits assumed): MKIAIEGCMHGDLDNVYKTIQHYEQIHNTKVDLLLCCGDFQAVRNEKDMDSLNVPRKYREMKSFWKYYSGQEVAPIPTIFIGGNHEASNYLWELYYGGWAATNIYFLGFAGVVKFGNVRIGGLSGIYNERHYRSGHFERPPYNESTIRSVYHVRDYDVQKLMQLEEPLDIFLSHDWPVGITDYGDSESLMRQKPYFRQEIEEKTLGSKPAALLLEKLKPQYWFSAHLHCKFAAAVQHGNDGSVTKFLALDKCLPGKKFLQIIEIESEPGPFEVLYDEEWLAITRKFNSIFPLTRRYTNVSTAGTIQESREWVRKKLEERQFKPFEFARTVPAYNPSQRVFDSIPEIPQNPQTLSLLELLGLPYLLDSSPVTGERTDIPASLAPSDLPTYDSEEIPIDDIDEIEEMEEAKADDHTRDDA
In words: EMSA. Conditions: 2 ug tRNA, R-EMSA: 20 ul, binding buffer of RNA EMSA kit (Thermo), 5% glycerol, 2 nM biotin-RNA, 30 min, 6.5% native PAGE, pH and temperature not stated, recombinant protein, protein details: GST, label: 5' biotin (probe), unlabeled as cold competitor, probe letters rebuilt from the primers and the genome.

For at least one entry, the source does not settle the construct or the ends of the probe. For some of these results: Negatives hold for the conditions tested. Tags and fusion partners may be left off the protein sequences shown. For some of these results: The comparison behind a weaker result is the experiment's own reference, which may not be listed here. For some of these results: At least one verdict rests on a figure or table, not on a statement of the authors.

For “GGGAGAAUGGCCUUAUCUUCUCUCCUCAGAUCUGCCGCCACUUCCGCCGCAGCUCCUCGUGUCGAGCUUUAUCCAUCGUCAUCGUACAAUCAUUCUCAGGUAUUAAACGUUUUCGUUUCUCACUCUUGCGUUUG [GAPDH linear RNA]”, the binding result in data set [1] (cold competitor versus biotin-pri-miR167b, minor competition) is recorded as “binds more weakly”.
In the case of “GGAUUUCUCCACUUCUUGAGCUUCCGUUUUUUACAAUUAUUGAUCCGUCAAAUAUGUGAGAUUUGCACAACUUGUUGCUCAGGUAUUUUGAAGACAAGUCCACAAGGGAACAAGUGAAGCUGCCAGCAUGAUCUAUCUUUGGUUAAGAGAUGAAUGUGGAAACAUAUUGCUUAAACCCAAGCUAGGUCAUGCUCUGACAGCCUCACUCCUUCCUGGUUUAGGACCAUUCAUUGAUGAAGCAUUCCACAUGCCGAUUGAAAGAAAAAUAAGAGUCCCGAACGCACACAGUUGACU [pri-miR167b]”, the binding result is reported as “binds” in data set [2]; “no binding” in data set [3]; “binds” in data set [1] (cold pri-miR167b as positive control competitor, label: 5' biotin (probe), unlabeled as cold competitor).
